Experimental data as given in PMC12431657, “Discovery and mechanistic insights of dibenzoylmethane as a broad spectrum inhibitor of coronavirus” (PLOS Pathogens, 2025).
Where a name gives a salt, the structure may show the parent alone. Read-outs that look alike come from different tables or passages of the source. In all, about 3,300 compounds went through this assay and about 60 (2%) showed an effect of 50% or more. This is one part of the list.

Test system: HCoV-OC43
Set-up: species or system RD; HTS, protection from HCoV-OC43 induced cell death, luminescent cell viability (CellCounting-Lite 2.0), inhibition rate
Conditions: 24 h post infection, 1 h compound pre-incubation, 10 µM, inhibitor

| Structure (SMILES) | OC43 Inhibition rate [%] | OC43 Inhibition rate (OC43 Inhibition rate, 24 h) [%] |
| --- | --- | --- |
| CC(C)(O)CCc1c(O)cc(O)c2c(=O)c(O)c(-c3ccc(O)cc3)oc12 [Noricaritin] | 0.9 | – |
| COc1cc2c(cc1O)CC[C@@H]1[C@@H]2CC[C@]2(C)C(=O)CC[C@@H]12 [2-Methoxyestrone] | 5.2 | – |
| OCCc1ccc(O)c(O)c1 [Hydroxytyrosol] | 6.7 | – |
| NC(=O)NC(CC(=O)O)C(=O)O (racemic) [N-Carbamoyl-DL-aspartic acid] | -3.4 | – |
| OC[C@H]1O[C@H](OC[C@H]2O[C@H](O[C@]3(CO)O[C@H](CO)[C@@H](O)[C@@H]3O)[C@H](O)[C@@H](O)[C@@H]2O)[C@H](O)[C@@H](O)[C@H]1O [Raffinose] | -0.3 | – |
| C[C@@H]1CC[C@]2(C(=O)O)CC[C@]3(C)C(=CC[C@@H]4[C@@]5(C)C[C@@H](O)[C@@H](O)C(C)(C)[C@@H]5CC[C@]43C)[C@@H]2[C@]1(C)O [Euscaphic acid] | -1.5 | – |
| O=C(O)c1cc(=O)cc(C(=O)O)o1 [Chelidonic acid] | 0.7 | – |
| O=C(/C=C/c1ccc(O)c(O)c1)OC[C@@H](O)CO[C@@H]1O[C@H](CO)[C@@H](O)[C@H](O)[C@H]1O [Regaloside C] | -0.3 | – |
| C[N+](C)(C)C[C@H](O)CC(=O)[O-] [L-Carnitine (hydrochloride)] | – | -0.9 |
| COc1cc(CCC(O)CC(O)CCc2ccc(O)c(OC)c2)ccc1O (centres unmarked) [Octahydrocurcumin] | 1.7 | – |
| O=C(/C=C/c1ccc(O)cc1)NCCc1ccc(O)cc1 [N-p-trans-Coumaroyltyramine] | 1.2 | – |
| COc1c(O)cc2c(c1O)C(=O)c1c(cc(C)c(O)c1OC)C2=O [Aurantio-obtusin] | 1.4 | – |
| Cc1cc(=O)c2c(O)c3c(cc2o1)OC(C)(C)[C@@H](O[C@@H]1O[C@H](CO)[C@@H](O)[C@H](O)[C@H]1O)C3 [Sec-O-Glucosylhamaudol] | -0.4 | – |
| C[C@H]1[C@H](C)CC[C@]2(C(=O)O)CC[C@]3(C)C(=CC[C@@H]4[C@@]5(C)C[C@@H](O)[C@H](O)C(C)(C)[C@@H]5CC[C@]43C)[C@H]12 [Corosolic acid] | -23.1 | – |
| C=C(C)[C@H](CC=C(C)C)Cc1c(O)cc(OC)c2c1O[C@H](c1ccc(O)cc1O)CC2=O [Kurarinone] | 0 | – |
| COc1cc(O)c2c(=O)c(O[C@@H]3O[C@H](CO)[C@@H](O)[C@H](O)[C@H]3O)c(-c3ccc(O[C@@H]4O[C@H](CO)[C@@H](O)[C@H](O)[C@H]4O)cc3)oc2c1 [Complanatuside] | -0.2 | – |
| O=C(O)CCc1ccccc1O [3-(2-Hydroxyphenyl)propanoic acid] | -0.1 | – |
| CC(C)=CCC/C(C)=C/CC/C(C)=C/CO [Farnesol] | -0.3 | – |
| CC[C@H]1CN2CC[C@@]3(C(=O)Nc4ccccc43)[C@@H]2C[C@@H]1/C(=C\OC)C(=O)OC [Isorhynchophylline] | 2.7 | – |

| Structure (SMILES) | OC43 Inhibition rate [%] | OC43 Inhibition rate (OC43 Inhibition rate, 24 h) [%] |
| --- | --- | --- |
| COc1c(-c2ccccc2)oc2c(ccc3occc32)c1=O [Karanjin] | 0 | – |
| CO[C@@H]1C=C2[C@@H]3CC(C)(C)CC[C@]3(CO)[C@H](O)C[C@@]2(C)[C@]2(C)CC[C@H]3[C@](C)(CO)[C@@H](O[C@@H]4O[C@H](C)[C@H](O)[C@H](O[C@@H]5O[C@H](CO)[C@@H](O)[C@H](O)[C@H]5O)[C@H]4O)CC[C@]3(C)[C@@H]12 [Saikosaponin B4] | 1.1 | – |
| O=C1C[C@@H](c2ccccc2)Oc2cc(O[C@@H]3O[C@H](CO)[C@@H](O)[C@H](O)[C@H]3O)cc(O)c21 [Pinocembrin-7-O-β-D-glucopyranoside] | -0.1 | – |
| O=c1cc(-c2ccccc2)oc2cc(O)cc(O)c12 [Chrysin] | 1.5 | – |
| Nc1ncnc2c1ncn2[C@@H]1O[C@H](COP(=O)(O)OP(=O)(O)O)[C@@H](O)[C@H]1O [Adenosine 5'-diphosphate] | 0.9 | – |
| CCCCCc1cc(=O)c2ccccc2n1C [1-Methyl-2-pentyl-4(1H)-quinolinone] | -0.6 | – |
| CC(C)=CCC[C@](C)(O[C@@H]1O[C@H](CO)[C@@H](O)[C@H](O)[C@H]1O)[C@H]1CC[C@]2(C)[C@@H]1[C@H](O)C[C@@H]1[C@@]3(C)CC[C@H](O)C(C)(C)[C@@H]3[C@@H](O[C@@H]3O[C@H](CO)[C@@H](O)[C@H](O)[C@H]3O)C[C@]12C [Ginsenoside Rg1] | -0.4 | – |
| CC(CC(=O)C[C@@H](C)[C@H]1CC(=O)[C@@]2(C)C3=C(C(=O)C[C@]12C)[C@@]1(C)CC[C@H](O)C(C)(C)[C@@H]1C[C@@H]3O)C(=O)O (some centres unmarked) [Ganoderic acid B] | -3.1 | – |
| C=C1CC[C@@H]2[C@](C)(CO)[C@H](O)CC[C@@]2(C)[C@@H]1CCC1=CCOC1=O [14-Deoxyandrographolide] | – | -0.4 |
| CO[C@H]1[C@@H](O)[C@H](O[C@@H]2[C@@H](C)O[C@@H](O[C@H]3CC[C@@]4(C)[C@@H](CC[C@@]56O[C@@]57CC[C@@H](C(C)=O)[C@@]7(C)[C@H](OC(C)=O)[C@@H](OC(=O)c5ccccc5)[C@H]46)C3)C[C@H]2OC)O[C@H](C)[C@H]1O [Tenacissoside I] | -4 | – |
| CN1Cc2c(ccc3c2OCO3)-c2ccc3cc4c(cc3c21)OCO4 [Dihydrosanguinarine] | 16.8 | – |
| COc1ccc(C(=O)O)cc1O [Isovanillic acid] | 0 | – |
| C=C[C@@]1(C)CC(=O)[C@]2(O)[C@@]3(C)[C@@H](O)CCC(C)(C)[C@@H]3[C@H](O)[C@H](OC(C)=O)[C@@]2(C)O1 [Forskolin] | -1.4 | – |
| COc1cc(C=O)ccc1O[C@@H]1O[C@H](CO)[C@@H](O)[C@H](O)[C@H]1O [Glucovanillin] | -0.5 | – |
| O=C(O)c1cc(=O)[nH]c(=O)[nH]1 [2,6-Dioxo-1,2,3,6-tetrahydropyrimidine-4-carboxylic acid hyd] [2,6-Dioxo-1,2,3,6-tetrahydropyrimidine-4-carboxylic acid hydrate] | – | -1 |
| c1cc2c(cc1[C@H]1OC[C@H]3[C@@H]1CO[C@@H]3c1ccc3c(c1)OCO3)OCO2 [Sesamin] | 5.8 | – |
| O=C(O)Cc1cc(I)c(Oc2cc(I)c(O)c(I)c2)c(I)c1 [Tetrac] | 4.3 | – |
| CC(C)=CCc1c(-c2ccc(O)cc2O)oc2c([C@H]3C=C(C)C[C@@H](c4ccc(O)cc4O)[C@@H]3C(=O)c3ccc(O)cc3O)c(O)cc(O)c2c1=O [Kuwanon G] | 0.3 | – |
| Oc1nc(O)c2nc(O)[nH]c2n1 [Uric acid] | -0.2 | – |

Three of the compounds above, bar-delimited:
Structure (SMILES) | OC43 Inhibition rate [%] | OC43 Inhibition rate (OC43 Inhibition rate, 24 h) [%]
CC(C)=CCC[C@](C)(O[C@@H]1O[C@H](CO)[C@@H](O)[C@H](O)[C@H]1O)[C@H]1CC[C@]2(C)[C@@H]1[C@H](O)C[C@@H]1[C@@]3(C)CC[C@H](O)C(C)(C)[C@@H]3[C@@H](O[C@@H]3O[C@H](CO)[C@@H](O)[C@H](O)[C@H]3O)C[C@]12C [Ginsenoside Rg1] | -0.4 | –
CC(CC(=O)C[C@@H](C)[C@H]1CC(=O)[C@@]2(C)C3=C(C(=O)C[C@]12C)[C@@]1(C)CC[C@H](O)C(C)(C)[C@@H]1C[C@@H]3O)C(=O)O (some centres unmarked) [Ganoderic acid B] | -3.1 | –
C=C1CC[C@@H]2[C@](C)(CO)[C@H](O)CC[C@@]2(C)[C@@H]1CCC1=CCOC1=O [14-Deoxyandrographolide] | – | -0.4

(cont.)

| Structure (SMILES) | OC43 Inhibition rate [%] | OC43 Inhibition rate (OC43 Inhibition rate, 24 h) [%] |
| --- | --- | --- |
| C[C@]12C[C@H](O)[C@H]3[C@@H](CCC4=CC(=O)CC[C@@]43C)[C@@H]1CC[C@@H]2C(=O)CO [Corticosterone] | 0.7 | – |
| O=C(/C=C/c1ccc(O)c(O)c1)c1ccc(O)cc1O [Butein] | 6.5 | – |
| NC[C@H]1O[C@H](O[C@H]2[C@H](O)[C@@H](O[C@H]3O[C@H](CO)[C@@H](O)[C@H](N)[C@H]3O)[C@H](N)C[C@@H]2N)[C@H](O)[C@@H](O)[C@@H]1O [Kanamycin (sulfate)] | 3.2 | – |
| COc1ccc2c(=O)c(-c3ccc(O)cc3)coc2c1 [Isoformononetin] | 3.5 | – |
| CC[C@H]1CN2CC[C@H]1C[C@@H]2[C@@H](O)c1ccnc2ccc(OC)cc12 [Hydroquinidine] | 12.3 | – |
| N[C@@H](CC(=O)O)C(=O)O [Aspartic acid (calcium)] | – | -2.9 |
| COc1cc(C=CC(=O)O)cc(OC)c1O (stereo in doubt) [Sinapinic acid] | 1.1 | – |
| Nc1ncnc2c1ncn2[C@H]1C[C@H](O)[C@@H](COP(=O)(O)O)O1 [2'-Deoxyadenosine-5'-monophosphate] | -0.8 | – |
| Cc1cc(O)c(C(=O)CCC(C)C)c(=O)o1 [Pogostone] | -0.7 | – |
| CC[C@@H]1[C@H]2CCCCN3[C@H]2[C@H](C[C@H]3[C@@H]2C[C@H](C)C(=O)O2)[C@@H]2[C@H]1OC(=O)[C@H]2C [Tuberostemonine] | 0.8 | – |
| OC[C@H]1O[C@H](OC[C@H]2OC(O)[C@H](O)[C@@H](O)[C@@H]2O)[C@H](O)[C@@H](O)[C@@H]1O (some centres unmarked) [Isomaltose] | 1.7 | – |
| COc1cc(OC)cc(C(=O)O)c1 [3,5-Dimethoxybenzoic acid] | 0.6 | – |
| COc1ccc2c(c1OC)C(=O)OC2 [Meconine] | -0.3 | – |
| CC1(C)C2=CCCC(C)(C)[C@]23CC[C@H]1C3 [Isolongifolene] | 0.4 | – |
| COc1ccc2[nH]cc(CC(=O)O)c2c1 [5-Methoxyindole-3-acetic acid] | -0.3 | – |
| CC(C)=CCC[C@](C)(O[C@@H]1O[C@H](CO)[C@@H](O)[C@H](O)[C@H]1O)[C@H]1CC[C@]2(C)[C@@H]1[C@H](O)C[C@@H]1[C@@]3(C)C[C@@H](O)[C@H](O[C@@H]4O[C@H](CO)[C@@H](O)[C@H](O)[C@H]4O[C@@H]4O[C@H](CO)[C@@H](O)[C@H](O)[C@H]4O)C(C)(C)[C@@H]3CC[C@]12C [Gypenoside XLVI] | 3.7 | – |
| O=C(O)c1ccoc1 [3-Furanoic acid] | -1.3 | – |
| OC[C@H]1O[C@H](O[C@H]2[C@H](O)[C@@H](O)[C@H](O)O[C@@H]2CO)[C@H](O)[C@@H](O)[C@@H]1O [Maltose] | – | -0.9 |
